Cleaved PARP in drug-treated melanoma cells

Source: doi:10.1371/journal.pone.0140310, primary screening data, rounded.

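The test systems are human melanoma cell lines, treated with a pair of drugs for 72 h and then stained and imaged. The read-out is the fraction of cleaved-PARP-positive nuclei, in % of that fraction in the DMSO control; 200 means twice the control level of this apoptosis marker. Concentrations were fixed for each drug; these are the higher of two levels. The file gives one value for each pair and line, without errors, so small differences may be noise. The marker varies much from line to line, for technical or biological reasons.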
This is part of the screen, not chosen by result.

Compounds and concentrations:
sunitinib (2 µM): CCN(CC)CCNC(=O)c1c(C)[nH]c(/C=C2\C(=O)Nc3ccc(F)cc32)c1C
midostaurin (0.4 µM): CO[C@@H]1[C@H](N(C)C(=O)c2ccccc2)C[C@H]2O[C@]1(C)n1c3ccccc3c3c4c(c5c6ccccc6n2c5c31)C(=O)NC4
BI-D1870 (1 µM): CC(C)CCN1c2nc(Nc3cc(F)c(O)c(F)c3)ncc2N(C)C(=O)C1C (stereo not drawn)
GW0742 (10 µM): Cc1cc(SCc2sc(-c3ccc(C(F)(F)F)c(F)c3)nc2C)ccc1OCC(=O)O
L-779450 (1 µM): Oc1cc(-c2nc(-c3ccccc3)[nH]c2-c2ccncc2)ccc1Cl
U73122 (2 µM): COc1ccc2c(c1)CCC1C2CCC2(C)C(NCCCCCCN3C(=O)C=CC3=O)CCC12 (stereo not drawn)
ENMD-2076 (0.2 µM): Cc1cc(Nc2cc(N3CCN(C)CC3)nc(/C=C/c3ccccc3)n2)n[nH]1

Pair	COLO 829
U73122 + BI-D1870	141
L-779450 + GW0742	142
sunitinib + L-779450	200
GW0742 + midostaurin	76.7
sunitinib + BI-D1870	168
sunitinib + GW0742	74.4
ENMD-2076 + BI-D1870	114
BI-D1870 + GW0742	158
U73122 + L-779450	162
ENMD-2076 + midostaurin	116
ENMD-2076 + GW0742	152
U73122 + midostaurin	80.9
U73122 + GW0742	68.6
sunitinib + U73122	58.6
sunitinib + midostaurin	133
L-779450 + midostaurin	145
midostaurin + BI-D1870	167
BI-D1870 + L-779450	113